Source: patent US10563263B2, “Genetic polymorphisms associated with statin response and cardiovascular diseases, methods of detection and uses thereof” (CELERA CORPORATION, priority 2010, dated 2020)
The source gives many values for each of these; only a part stands here.

Tested on: CHD
Assay: Meta-analysis of CARE and WOSCOPS combined, synergy index, CHD endpoint
Type: in vivo, human
Source text: Tables 4-5 provide meta-analyses of CARE and WOSCOPS combined (2nd section of each table) for two endpoints (CHD and CVD) and three genetic models (dominant, recessive, and additive), as well as logistic regression analyses of CARE (3rd section of each table) and WOSCOPS (4th section of each table) individually.
Tables 12 and 17 provide results of meta-analysis of the CARE and WOSCOPS sample sets combined by direct genotyping and by imputing genotypes.
“P” indicates the p-value, and “P(R)” (or “P.R.”) indicates the p-value random effect. Both of these are p-values corresponding to a statistical test of whether the combined synergy index is equal to one but use different assumptions to derive the p-value. “P” is calculated using a fixed effects model, and “P(R)” is calculated using a random effects model.
“OR” indicates the odds ratio (synergy index) calculated from a fixed effects model, and “OR(R)” (or “OR.R.”) indicates the odds ratio (synergy index) calculated from a random effects model.

[1] = rs1003148 allele C ADDITIVE Imputed
[2] = rs1003148 allele C GENOTYPIC Imputed
[3] = rs1012924 allele G ADDITIVE Imputed
[4] = rs1012924 allele G DOMINANT Imputed
[5] = rs1016030 allele G ADDITIVE Genotyped
[6] = rs1016030 allele G GENOTYPIC Genotyped
[7] = rs1017558 allele A RECESSIVE Imputed
[8] = rs1032188 allele G GENOTYPIC Imputed
[9] = rs1032188 allele G RECESSIVE Imputed
[10] = rs1065639 allele C DOMINANT Imputed
[11] = rs1116596 allele T DOMINANT Imputed

Q: With `CC[C@H](C)C(=O)O[C@H]1C[C@H](O)C=C2C=C[C@H](C)[C@H](CC[C@@H](O)C[C@@H](O)CC(=O)O)[C@H]21` [Pravastatin, pravastatin] as the molecule, how does the “OR(R)” value (rs915491 allele C DOMINANT Imputed, P(R) 0.0002054) read?
A: 1.5426

Q: And the OR (rs915493 allele T DOMINANT Imputed, P 0.0002054)?
A: 1.5426

Q: And the “OR(R)” value (rs915493 allele T DOMINANT Imputed, P(R) 0.0002054)?
A: 1.5426

Q: What about the OR (rs915494 allele A ADDITIVE Imputed, P 0.001238) of the same molecule?
A: 1.3527

Q: And the “OR(R)” value (rs915494 allele A ADDITIVE Imputed, P(R) 0.001238)?
A: 1.3527

Q: What about the OR (rs915494 allele A DOMINANT Imputed, P 0.0002045) of the same molecule?
A: 1.5574

Q: What about the “OR(R)” value (rs915494 allele A DOMINANT Imputed, P(R) 0.0002045) of the same molecule?
A: 1.5574

Q: What about the OR (rs917295 allele G DOMINANT Imputed, P 0.0005579) of the same molecule?
A: 0.6664

Q: What about the “OR(R)” value (rs917295 allele G DOMINANT Imputed, P(R) 0.0005579) of the same molecule?
A: 0.6664

Q: And the “Meta-analysis OR” value (rs936671, A1 (non-ref) G, A2 (ref) A)?
A: 0.70

Q: And the “Meta-analysis OR” value (rs945020 allele A vs G (ref))?
A: 0.65

Q: And the OR (rs966583 allele A ADDITIVE Imputed, P 9.56E−05)?
A: 0.7127

Q: What about the “OR(R)” value (rs966583 allele A ADDITIVE Imputed, P(R) 9.56E−05) of the same molecule?
A: 0.7127

Q: And the OR (rs966583 allele A DOMINANT Imputed, P 4.65E−05)?
A: 0.6082

Q: And the “OR(R)” value (rs966583 allele A DOMINANT Imputed, P(R) 4.65E−05)?
A: 0.6082

Q: What about the OR (rs980263 allele T GENOTYPIC Imputed, P 6.16E−05) of the same molecule?
A: 2.059

Q: What about the “OR(R)” value (rs980263 allele T GENOTYPIC Imputed, P(R) 6.16E−05) of the same molecule?
A: 2.059

Q: What about the OR (rs980264 allele T GENOTYPIC Imputed, P 6.16E−05) of the same molecule?
A: 2.059

Q: And the “OR(R)” value (rs980264 allele T GENOTYPIC Imputed, P(R) 6.16E−05)?
A: 2.059

Q: And the OR (rs987296 allele T GENOTYPIC Imputed, P 7.90E−05)?
A: 2.0683

Q: And the “OR(R)” value (rs987296 allele T GENOTYPIC Imputed, P(R) 7.90E−05)?
A: 2.0683

Q: And the OR (rs992695 allele C ADDITIVE Imputed, P 2.92E−05)?
A: 0.6695

Q: What about the “OR(R)” value (rs992695 allele C ADDITIVE Imputed, P(R) 2.92E−05) of the same molecule?
A: 0.6695

Q: What about the OR (rs992695 allele C DOMINANT Imputed, P 2.06E−05) of the same molecule?
A: 0.6059

Q: What about the “OR(R)” value (rs992695 allele C DOMINANT Imputed, P(R) 2.06E−05) of the same molecule?
A: 0.6059

Q: What about the OR [1] of the same molecule?
A: 0.706

Q: What about the “OR(R)” value [1] of the same molecule?
A: 0.706

Q: And the OR [2]?
A: 0.4899

Q: And the “OR(R)” value [2]?
A: 0.4899

Q: And the OR [3]?
A: 0.5369

Q: And the “OR(R)” value [3]?
A: 0.5369

Q: What about the OR [4] of the same molecule?
A: 0.5009

Q: And the “OR(R)” value [4]?
A: 0.5009

Q: And the OR [5]?
A: 1.4487

Q: And the “OR(R)” value [5]?
A: 1.4487

Q: What about the OR [6] of the same molecule?
A: 2.1351

Q: And the “OR(R)” value [6]?
A: 2.1351

Q: And the OR [7]?
A: 2.016

Q: And the “OR(R)” value [7]?
A: 2.016

Q: What about the OR [8] of the same molecule?
A: 0.411

Q: What about the “OR(R)” value [8] of the same molecule?
A: 0.3885

Q: What about the OR [9] of the same molecule?
A: 0.4495

Q: And the “OR(R)” value [9]?
A: 0.4153

Q: What about the “Meta-analysis OR” value (rs1051344 allele G vs C (ref)) of the same molecule?
A: 0.64

Q: What about the OR [10] of the same molecule?
A: 1.7059

Q: What about the “OR(R)” value [10] of the same molecule?
A: 1.7059

Q: And the OR [11]?
A: 0.5722

Q: And the “OR(R)” value [11]?
A: 0.5722

Q: And the “Meta-analysis OR” value (rs1167245 allele A vs G (ref))?
A: 0.62

Q: What about the OR (rs1247340 allele C ADDITIVE Imputed, fixed effect) of the same molecule?
A: 1.5296

Q: And the “OR(R)” value (rs1247340 allele C ADDITIVE Imputed, random effect)?
A: 1.5296

Q: And the OR (rs1247340 allele C DOMINANT Imputed, fixed effect)?
A: 1.7083

Q: What about the “OR(R)” value (rs1247340 allele C DOMINANT Imputed, random effect) of the same molecule?
A: 1.7083

Q: And the OR (rs1247341 allele C ADDITIVE Imputed, fixed effect)?
A: 1.5303

Q: And the “OR(R)” value (rs1247341 allele C ADDITIVE Imputed, random effect)?
A: 1.5303

Q: What about the OR (rs1247341 allele C DOMINANT Imputed, fixed effect) of the same molecule?
A: 1.7098

Q: And the “OR(R)” value (rs1247341 allele C DOMINANT Imputed, random effect)?
A: 1.7098

Q: And the OR (rs1247343 allele C DOMINANT Imputed, fixed effect)?
A: 1.6756

Q: And the “OR(R)” value (rs1247343 allele C DOMINANT Imputed, random effect)?
A: 1.6756

Q: What about the OR (rs1330052 allele G GENOTYPIC Imputed, fixed effect) of the same molecule?
A: 2.0747

Q: What about the “OR(R)” value (rs1330052 allele G GENOTYPIC Imputed, random effect) of the same molecule?
A: 2.0747

Q: What about the OR (rs1335721 allele A RECESSIVE Imputed, fixed effect) of the same molecule?
A: 0.5252

Q: And the “OR(R)” value (rs1335721 allele A RECESSIVE Imputed, random effect)?
A: 0.5252

Q: And the OR (rs1336382 allele T DOMINANT Imputed, fixed effect)?
A: 1.5804

Q: And the “OR(R)” value (rs1336382 allele T DOMINANT Imputed, random effect)?
A: 1.5804

Q: What about the OR (rs1336383 allele T DOMINANT Imputed, fixed effect) of the same molecule?
A: 1.5819

Q: And the “OR(R)” value (rs1336383 allele T DOMINANT Imputed, random effect)?
A: 1.5819

Q: What about the OR (rs1336407 allele T DOMINANT Imputed, fixed effect) of the same molecule?
A: 1.5612

Q: What about the “OR(R)” value (rs1336407 allele T DOMINANT Imputed, random effect) of the same molecule?
A: 1.5612

Q: And the OR (rs1336409 allele T DOMINANT Imputed, fixed effect)?
A: 1.5612

Q: And the “OR(R)” value (rs1336409 allele T DOMINANT Imputed, random effect)?
A: 1.5612

Q: What about the OR (rs1336596 allele A DOMINANT Imputed, fixed effect) of the same molecule?
A: 0.5875

Q: What about the “OR(R)” value (rs1336596 allele A DOMINANT Imputed, random effect) of the same molecule?
A: 0.5875

Q: And the OR (rs1349284 allele C GENOTYPIC Imputed, fixed effect)?
A: 2.0683

Q: And the “OR(R)” value (rs1349284 allele C GENOTYPIC Imputed, random effect)?
A: 2.0683

Q: What about the OR (rs1355715 allele T ADDITIVE Imputed, fixed effect) of the same molecule?
A: 0.5021

Q: And the “OR(R)” value (rs1355715 allele T ADDITIVE Imputed, random effect)?
A: 0.5021

Q: And the OR (rs1357696 allele A GENOTYPIC Imputed, fixed effect)?
A: 2.0503

Q: What about the “OR(R)” value (rs1357696 allele A GENOTYPIC Imputed, random effect) of the same molecule?
A: 2.0503

Q: And the OR (rs1357698 allele A GENOTYPIC Imputed, fixed effect)?
A: 2.0604

Q: What about the “OR(R)” value (rs1357698 allele A GENOTYPIC Imputed, random effect) of the same molecule?
A: 2.0604

Q: What about the OR (rs1357699 allele T GENOTYPIC Imputed, fixed effect) of the same molecule?
A: 2.0604

Q: What about the “OR(R)” value (rs1357699 allele T GENOTYPIC Imputed, random effect) of the same molecule?
A: 2.0604

Q: And the OR (rs1363273 allele C RECESSIVE Imputed, fixed effect)?
A: 0.5543

Q: And the “OR(R)” value (rs1363273 allele C RECESSIVE Imputed, random effect)?
A: 0.5543

Q: What about the OR (rs1373601 allele A DOMINANT Imputed, fixed effect) of the same molecule?
A: 0.6152

Q: What about the “OR(R)” value (rs1373601 allele A DOMINANT Imputed, random effect) of the same molecule?
A: 0.6152

Q: What about the OR (rs1375829 allele C GENOTYPIC Imputed, fixed effect) of the same molecule?
A: 2.0683

Q: What about the “OR(R)” value (rs1375829 allele C GENOTYPIC Imputed, random effect) of the same molecule?
A: 2.0683

Q: And the OR (rs1395748 allele G DOMINANT Imputed, fixed effect)?
A: 0.6306

Q: What about the “OR(R)” value (rs1395748 allele G DOMINANT Imputed, random effect) of the same molecule?
A: 0.6306

Q: And the OR (rs1414865 allele T DOMINANT Imputed, fixed effect)?
A: 1.5599

Q: What about the “OR(R)” value (rs1414865 allele T DOMINANT Imputed, random effect) of the same molecule?
A: 1.5599

Q: What about the OR (rs1414873 allele A DOMINANT Imputed, fixed effect) of the same molecule?
A: 1.5612

Q: What about the “OR(R)” value (rs1414873 allele A DOMINANT Imputed, random effect) of the same molecule?
A: 1.5612

Q: And the OR (rs1414876 allele C DOMINANT Imputed, fixed effect)?
A: 1.5612

Q: And the “OR(R)” value (rs1414876 allele C DOMINANT Imputed, random effect)?
A: 1.5612

Q: What about the OR (rs1424643 allele G ADDITIVE Imputed, fixed effect) of the same molecule?
A: 1.4199
